The source of these data is paper PMC7511232 (eLife, 2020).

These are yes or no findings as the source states them, for the method shown. For some assays here: Binding seen in cells or lysates may run through a third protein. Some binding calls cover weakened binding; strength is not graded here. Sequences can lack the tags named with a protein.

In experiment [1] the target is Atg11(522-552), yeast two-hybrid fusion (S. pombe) (UniProt O14261). Put plainly: two-hybrid.
Experiment [2] concerns the target Atg11(522-552), fusions with GFP and mCherry (S. pombe) (UniProt O14261). Kind of experiment: co-IP.
In experiment [3] the target is Atg11(546-583), fusions with GFP and mCherry (S. pombe) (UniProt O14261). Kind of experiment: co-IP.
Experiment [4] addresses Atg11(546-583), yeast two-hybrid fusion (S. pombe) (UniProt O14261). Put plainly: two-hybrid.
In experiment [5] the target is Atg11(522-583), fusions with GFP and mCherry (S. pombe) (UniProt O14261). Kind of experiment: co-IP.
The target of experiment [6] is Atg11(522-583), yeast two-hybrid fusion (S. pombe) (UniProt O14261). Kind of experiment: two-hybrid.
Experiment [7] concerns the target full-length Atg11 tagged with YFP and mCherry respectively (S. pombe) (UniProt O14261). Kind of experiment: co-IP.
Experiment [8] deals with Atg11(546-583)Δ tagged with GFP and mCherry respectively (S. pombe) (UniProt O14261). Kind of experiment: co-IP.

B1: Atg11(522-552), yeast two-hybrid fusion (domain or fragment, UniProt O14261 522-552)
chain: SSQPFYRVSPSIVPLNVIRKLTNRKTSFTDS
As to B1, the binding result in experiment [1] was “no binding”.

B2: Atg11(522-552), fusions with GFP and mCherry (domain or fragment, UniProt O14261 522-552)
chain: SSQPFYRVSPSIVPLNVIRKLTNRKTSFTDS
With B2, the binding result in experiment [2] is “no binding”.

B3: Atg11(546-583), fusions with GFP and mCherry (domain or fragment, UniProt O14261 546-583)
chain: KTSFTDSHILRLQDEVNQLRNELDLVNKRNEDLLIELQ
Consider B3, for which, in experiment [3], the binding result is given as “binds”.

B4: Atg11(546-583), yeast two-hybrid fusion (domain or fragment, UniProt O14261 546-583)
chain: KTSFTDSHILRLQDEVNQLRNELDLVNKRNEDLLIELQ
Take B4: the binding entry in experiment [4] was “binds”.

B5: Atg11(522-583), fusions with GFP and mCherry (domain or fragment, UniProt O14261 522-583)
chain: SSQPFYRVSPSIVPLNVIRKLTNRKTSFTDSHILRLQDEVNQLRNELDLVNKRNEDLLIELQ
Take B5: in experiment [5], the binding entry is given as “binds”.

B6: Atg11(522-583), yeast two-hybrid fusion (domain or fragment, UniProt O14261 522-583)
chain: SSQPFYRVSPSIVPLNVIRKLTNRKTSFTDSHILRLQDEVNQLRNELDLVNKRNEDLLIELQ
Turning to B6, the binding entry in experiment [6] was “binds”.

B7: full-length Atg11 tagged with YFP and mCherry respectively (protein, UniProt O14261 1-926)
chain: MRFRLNDSFSGKSWTIDNVQWTPQNLVAWIMELNIGLSDEAKLLLPNGMSLNETVLNSESDVVIYVLDQNLLTFTYDGDKIPSIPSLKGQPISNVLTGIIADSSSDQWKDKISKCLSLLSDILESSSKIHNQLSVCHDEYSTSIVSPEVAMNYLQRRQSGMKDLLFVFYERLDRVSVSDLLHDFLALPTGSLPITPLKILSTNWTKLDSWLNSISARYAEAQKRVQQCIGAANSIIVSPFKEVPSIKEGDDAYYHLRSVAQDAANILQEILKIESTSTTSQIKPKCNYETEITDCMEKLQSNLSELKSSRKSSLISLKSFWLSFYKVSLRYDALYEYLRQIAEELDRSKFVLSQSRNIFSLYIDILMEALRRTEWQESYNVSHDSSLPLDQEKELSLRKSWLSHFSNLLFNHGQLKYLPVLTRDEISNYLLNIQAHPNYQTFHQMLSNRLSEYLGFPGSPREAVSNTVQANNSLHEKLAMYQNRCNNLEAMLSHQNGFNYNINNDGLSPNAPHPPINEQSNSSQPFYRVSPSIVPLNVIRKLTNRKTSFTDSHILRLQDEVNQLRNELDLVNKRNEDLLIELQGKEEKIQYLETENEEVLQKYENLQEELSSTRKLLTKNEAAVAEQQSNEEMHSNEPNILNLYSVFEGKVDSLQELYNAFKLQLTSLKQKGEYATLAKDAEAVQHIIEERDYALAEKADLLKLSENRKEQCKILTQKLYTIVFRCNELQSVLRECVTQPGFDSDNERDGHASIPDRQIEFNSKDLQYLYWMDGEDADRNFQEFLNRMSSLDFDSFHNFVVSVLTQAHNHELRWKREFQSNRDKALKAILDSQSKVSLRNFKQGSLVLFLPTRRTAGNKKVWAAFNVNAPHYYLNTQPHLKLESRDWMLGRVTSIEDRTADDSTDKWLRLPSGTIWHLVEAIDERF
In the case of B7, in experiment [7], the binding entry was “binds”.

B8: Atg11(546-583)Δ tagged with GFP and mCherry respectively (protein, UniProt O14261)
chain: MRFRLNDSFSGKSWTIDNVQWTPQNLVAWIMELNIGLSDEAKLLLPNGMSLNETVLNSESDVVIYVLDQNLLTFTYDGDKIPSIPSLKGQPISNVLTGIIADSSSDQWKDKISKCLSLLSDILESSSKIHNQLSVCHDEYSTSIVSPEVAMNYLQRRQSGMKDLLFVFYERLDRVSVSDLLHDFLALPTGSLPITPLKILSTNWTKLDSWLNSISARYAEAQKRVQQCIGAANSIIVSPFKEVPSIKEGDDAYYHLRSVAQDAANILQEILKIESTSTTSQIKPKCNYETEITDCMEKLQSNLSELKSSRKSSLISLKSFWLSFYKVSLRYDALYEYLRQIAEELDRSKFVLSQSRNIFSLYIDILMEALRRTEWQESYNVSHDSSLPLDQEKELSLRKSWLSHFSNLLFNHGQLKYLPVLTRDEISNYLLNIQAHPNYQTFHQMLSNRLSEYLGFPGSPREAVSNTVQANNSLHEKLAMYQNRCNNLEAMLSHQNGFNYNINNDGLSPNAPHPPINEQSNSSQPFYRVSPSIVPLNVIRKLTNRGKEEKIQYLETENEEVLQKYENLQEELSSTRKLLTKNEAAVAEQQSNEEMHSNEPNILNLYSVFEGKVDSLQELYNAFKLQLTSLKQKGEYATLAKDAEAVQHIIEERDYALAEKADLLKLSENRKEQCKILTQKLYTIVFRCNELQSVLRECVTQPGFDSDNERDGHASIPDRQIEFNSKDLQYLYWMDGEDADRNFQEFLNRMSSLDFDSFHNFVVSVLTQAHNHELRWKREFQSNRDKALKAILDSQSKVSLRNFKQGSLVLFLPTRRTAGNKKVWAAFNVNAPHYYLNTQPHLKLESRDWMLGRVTSIEDRTADDSTDKWLRLPSGTIWHLVEAIDERF
B8: in experiment [8], the binding entry was “no binding”.
